Experimental data taken from article PMC7819943, “Rice protein-binding microarrays: a tool to detect cis-acting elements near promoter regions in rice”.
The list shows a part of the results.

Molecular target: T1, OsSMF1 (Oryza sativa, UniProt Q6ZLB0 1-436)
T1 sequence: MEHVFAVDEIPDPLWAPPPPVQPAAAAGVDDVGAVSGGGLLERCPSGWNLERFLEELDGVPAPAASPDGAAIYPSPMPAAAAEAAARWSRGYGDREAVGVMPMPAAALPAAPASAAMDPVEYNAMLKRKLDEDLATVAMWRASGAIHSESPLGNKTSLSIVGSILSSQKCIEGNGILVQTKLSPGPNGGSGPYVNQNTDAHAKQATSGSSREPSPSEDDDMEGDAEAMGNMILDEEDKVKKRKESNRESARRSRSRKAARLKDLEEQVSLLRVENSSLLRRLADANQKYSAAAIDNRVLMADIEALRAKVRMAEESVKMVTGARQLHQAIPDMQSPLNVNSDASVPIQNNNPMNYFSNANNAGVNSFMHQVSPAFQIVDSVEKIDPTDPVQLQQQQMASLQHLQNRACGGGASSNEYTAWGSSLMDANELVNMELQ
Assay: protein-binding microarray (RPBM); PBS, 2% BSA, 51.3 ng/ul salmon testes DNA, 50 uM zinc acetate, 200 nM TF, 25 C, 1 h; high values mean tight binding
Conditions: protein: recombinant; tags: N-terminal polyhistidine and DsRed monomer fusion (pET32a); chain copies: 2; label: CyDye5-dUTP incorporated in the synthesized complementary strand; 3' TTTTT single-stranded linker to array surface; dsDNA, one strand shown
Outline: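 For the binding signal, per-feature fluorescence intensity was read in arbitrary units on an Axon 4000B scanner. Before scanning, a 2% BSA-blocked custom Agilent array made double-stranded with Cy5-dUTP was washed after 1 h at 25 °C with 200 nM protein and 50 µM zinc acetate. The proteins were Ni–NTA-purified transcription factors with N-terminal polyhistidine and DsRed fusions, expressed in E. coli BL21-CodonPlus.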

Going from “GAGAGTATAACAGAAGCCACCTGGCGTCCGTGCCCACGGCCGGAGTCACCTAGTGCAG” to “AGCGGCGTCGTCTCGGCGGTGGCCGGTGCCACGGCGGCGGCGGAGTCACCTAGTGCAG”, the binding signal rises from 3670 fluorescence intensity (a.u.) to 6200 fluorescence intensity (a.u.).

Compared with “GGTTGGCGCGGCCGACCCACCGTCCCACTCCCACATGCCACGGAGTCACCTAGTGCAG”, “ATTCTTCAAAATACAAGAATTTCCTAGGGACAAAAGTTTCCGGAGTCACCTAGTGCAG” is higher in binding signal: 3340 fluorescence intensity (a.u.) for the first, 13900 fluorescence intensity (a.u.) for the second.

First: TACAGGAACAAATCAAGAAAGTTCCAGCTCACCAGCCAGTCGGAGTCACCTAGTGCAG
Second: TCCACCTTTTCATCAATATAGTCATGCATTAATACAGTCACGGAGTCACCTAGTGCAG
The binding signal of the first is higher: 4920 fluorescence intensity (a.u.) for the first, 4500 fluorescence intensity (a.u.) for the second.

First: ATACCAGTATTATTTTACCACGCCACTTTGTCATGGCAACCGGAGTCACCTAGTGCAG
Second: AACGGTTGTGACTACCCTCAGTCCGTCGTCTAAGTCAAATCGGAGTCACCTAGTGCAG
The binding signal of the first is higher: 3210 fluorescence intensity (a.u.) for the first, 3180 fluorescence intensity (a.u.) for the second.

Compared with “TATGTATGAATGACAACACCGCCACGTCAGCGCCACGTCACGGAGTCACCTAGTGCAG”, “GGCTTGAATAAAGGTGTGTTTGGTTGGGTGGATGGAGCATCGGAGTCACCTAGTGCAG” is lower in binding signal: 50400 fluorescence intensity (a.u.) for the first, 3320 fluorescence intensity (a.u.) for the second.

First: GCTTCTTGGCGATGGGCTGACCAACCCGTGGTGTAGCCAGCGGAGTCACCTAGTGCAG
Second: GTATCGCGGTATGCACGTGCGAGACCGCCCTCGGTATCGCCGGAGTCACCTAGTGCAG
The binding signal of the first is lower: 3160 fluorescence intensity (a.u.) for the first, 37000 fluorescence intensity (a.u.) for the second.

Going from “TTATGTTCCTCGAAGAAGAGATTAAGAGTGTGCGTGGAATCGGAGTCACCTAGTGCAG” to “AAGGGGTTACTAAATTTAGTCGGCATGACACACATGTATACGGAGTCACCTAGTGCAG”, the binding signal falls from 23500 fluorescence intensity (a.u.) to 3590 fluorescence intensity (a.u.).

Going from “TTCGCATCATCGCATCACACACCTCCTCCTCCTCCTCCTCCGGAGTCACCTAGTGCAG” to “TCGCGAATCGAGAGGAGCAAACCAATATTAAAGGAGGCAACGGAGTCACCTAGTGCAG”, the binding signal rises from 3470 fluorescence intensity (a.u.) to 11300 fluorescence intensity (a.u.).

Compared with “CCTCAGCCTTGGTGCTAAGACAACTAACCTCAGCGCTACACGGAGTCACCTAGTGCAG”, “CGCGGGTGGTGGGGCTTGGATCCGAGGCGGAGAGGTGGTGCGGAGTCACCTAGTGCAG” is lower in binding signal: 20800 fluorescence intensity (a.u.) for the first, 3860 fluorescence intensity (a.u.) for the second.

Compared with “GCGACCTCCGGCTCCAGCTTCCCTGACTGCATCAGCTCGACGGAGTCACCTAGTGCAG”, “CGCATTATCCCACCACAAAGGTAAGTAGCCCACGTGGCACCGGAGTCACCTAGTGCAG” is higher in binding signal: 3440 fluorescence intensity (a.u.) for the first, 17100 fluorescence intensity (a.u.) for the second.

Compared with “ACCGTAAAATTCCACATCACCGTGAGGAAATCGTTAGGGCCGGAGTCACCTAGTGCAG”, “ACCAGAGGAGTACGCGTGGCGGCTGCGCGTGTTCGCCGCCCGGAGTCACCTAGTGCAG” is lower in binding signal: 7070 fluorescence intensity (a.u.) for the first, 3240 fluorescence intensity (a.u.) for the second.

First: ATTATGTTGATGATGACAATGCATCAGATAATGGCCCTATCGGAGTCACCTAGTGCAG
Second: AAAGACAAATCTGTTGCTGGGGTGTTGTCATTGGTCAGGTCGGAGTCACCTAGTGCAG
The binding signal of the first is higher: 7820 fluorescence intensity (a.u.) for the first, 4270 fluorescence intensity (a.u.) for the second.

Going from “ACTGCCGCACCACGTCGCACAGCGCCGCCACATCTTTCTCCGGAGTCACCTAGTGCAG” to “TCAGCAGTAAAGGACAGAAGGCGAAAAGATTTGAGATCTTCGGAGTCACCTAGTGCAG”, the binding signal rises from 4230 fluorescence intensity (a.u.) to 65500 fluorescence intensity (a.u.).

Going from “CCTCCTCGGGCACTCCTCCTACCACCGTCACCACCTCGCACGGAGTCACCTAGTGCAG” to “TGACTCAAAGTTGGATGATGTCACTTCGCTCCATCTGCAGCGGAGTCACCTAGTGCAG”, the binding signal rises from 4470 fluorescence intensity (a.u.) to 8560 fluorescence intensity (a.u.).

Going from “GGCGCCGCCCTCGGCCCACCGCGTCGGCGTCGCCTCCGCCCGGAGTCACCTAGTGCAG” to “GCGGGGTTGGAGGAGGAGGAGGTGGTGGTGGTGGTGGTGGCGGAGTCACCTAGTGCAG”, the binding signal falls from 14600 fluorescence intensity (a.u.) to 4860 fluorescence intensity (a.u.).

Going from “ACATCTAGTGAAACATTGCAACATCTCTTTAATATATAGTCGGAGTCACCTAGTGCAG” to “TCGTGTCCACCATTTTGATCCAGGCTATACATATTGTTTTCGGAGTCACCTAGTGCAG”, the binding signal falls from 3490 fluorescence intensity (a.u.) to 3290 fluorescence intensity (a.u.).

Going from “TGGATGTTTCTAGGCGAGAAGCCACCATCATCCTACTAAGCGGAGTCACCTAGTGCAG” to “CACACGCCAACCCGGCCCCACACGTCAGCCACTCCCACTGCGGAGTCACCTAGTGCAG”, the binding signal rises from 3570 fluorescence intensity (a.u.) to 7300 fluorescence intensity (a.u.).

First: AGCTGATCCGCGTCACGTGGTCCTAGCCGTCGCCGTCGCCCGGAGTCACCTAGTGCAG
Second: GCTAACGTAAAACGAAGGATGGTACTTATTACAATTTGCGCGGAGTCACCTAGTGCAG
The binding signal of the first is higher: 11900 fluorescence intensity (a.u.) for the first, 3400 fluorescence intensity (a.u.) for the second.

Compared with “CTGTATACATCGCCCGTGTCTTGTGTGTTTCCTGTCTCGCCGGAGTCACCTAGTGCAG”, “TTAATTAGACTGACATGTGGGGTCCGCGTGGGTCCCACCACGGAGTCACCTAGTGCAG” is higher in binding signal: 3300 fluorescence intensity (a.u.) for the first, 4150 fluorescence intensity (a.u.) for the second.

First: GGTCTTGGTAGCCACCGTGTACGGCCTCTGCGGCATGCAGCGGAGTCACCTAGTGCAG
Second: TCCGCCCTTCGCCTCCTCCACCGAGTCAGATCTCGAGCGCCGGAGTCACCTAGTGCAG
The binding signal of the first is higher: 3770 fluorescence intensity (a.u.) for the first, 3390 fluorescence intensity (a.u.) for the second.

Compared with “GGAGGAGGTGGAGTGCGTCGCTGCGGTTAGGGTTTATGGCCGGAGTCACCTAGTGCAG”, “ACAACTTAAAATATTAAAATATTATGAGATGGAGAGTGTACGGAGTCACCTAGTGCAG” is lower in binding signal: 8730 fluorescence intensity (a.u.) for the first, 3260 fluorescence intensity (a.u.) for the second.
